PubChem BioAssay AID1259405 | NCATS, 2018

Assay: 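Silenced genes that increase secreted GFP made by CHO cells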 (primary screen)
System: Chinese hamster CHO-K1 ovary cells with stable secreted eGFP expression
Reagent: single siRNA against mouse genes, 0.8 pmol siRNA per well (2 µl of 400 nM stock)
Duration: 3 days
Detection: 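Percent of the per-plate non-targeting control median for intracellular GFP per well by laser scanning cytometry and for cell viability by ATP luminescence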
Reading the numbers: GFP, % of control: higher = more GFP per well, higher productivity; viability (ATP), % of control: higher = more viable cells (more ATP)
Rule for the call: 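a knock-down is called active if GFP reaches 120% or more of non-targeting control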
This is a random part of about 50,000 reagents tested. About 4,000 of all reagents (8%) were called active. 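Mouse siRNA library applied to hamster cells; one well for each siRNA.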 Entries without a mark were called inactive. Reagents against one gene are numbered here. No sequences are given here.

Trmt9b #1 — GFP, % of control: 98.8; viability (ATP), % of control: 70.2
Trmt9b #2 — GFP, % of control: 85.3; viability (ATP), % of control: 91
Trmt9b #3 — GFP, % of control: 135 (active); viability (ATP), % of control: 124
Fam149b #1 — GFP, % of control: 33.5; viability (ATP), % of control: 42.5
Fam149b #2 — GFP, % of control: 71.2; viability (ATP), % of control: 36.9
Fam149b #3 — GFP, % of control: 73.3; viability (ATP), % of control: 73.2
H1f0 #1 — GFP, % of control: 65.8; viability (ATP), % of control: 80.4
H1f0 #2 — GFP, % of control: 99.4; viability (ATP), % of control: 87
H1f0 #3 — GFP, % of control: 73.6; viability (ATP), % of control: 44.4
Ypel2 #1 — GFP, % of control: 63.7; viability (ATP), % of control: 90.4
Ypel2 #2 — GFP, % of control: 84; viability (ATP), % of control: 61
Ypel2 #3 — GFP, % of control: 72.4; viability (ATP), % of control: 70.9
Myl10 #1 — GFP, % of control: 73.7; viability (ATP), % of control: 77
Myl10 #2 — GFP, % of control: 67.8; viability (ATP), % of control: 73.9
Myl10 #3 — GFP, % of control: 77.4; viability (ATP), % of control: 70.9
Mtf2 #1 — GFP, % of control: 84; viability (ATP), % of control: 89.7
Mtf2 #2 — GFP, % of control: 70.4; viability (ATP), % of control: 74.1
Mtf2 #3 — GFP, % of control: 111; viability (ATP), % of control: 102

Single entries from above:
For “GFP, % of control”, Mtf2 #1 shows 84
H1f0 #1, GFP, % of control: 65.8
Ypel2 #1, GFP, % of control → 63.7
